From the supplement of paper PMC10849652
Some of the results follow.

Amino acid sequences for entries named in this document (tags omitted). A change or cut given only in a name is not applied to a line headed by its entry.
UniProt O00571: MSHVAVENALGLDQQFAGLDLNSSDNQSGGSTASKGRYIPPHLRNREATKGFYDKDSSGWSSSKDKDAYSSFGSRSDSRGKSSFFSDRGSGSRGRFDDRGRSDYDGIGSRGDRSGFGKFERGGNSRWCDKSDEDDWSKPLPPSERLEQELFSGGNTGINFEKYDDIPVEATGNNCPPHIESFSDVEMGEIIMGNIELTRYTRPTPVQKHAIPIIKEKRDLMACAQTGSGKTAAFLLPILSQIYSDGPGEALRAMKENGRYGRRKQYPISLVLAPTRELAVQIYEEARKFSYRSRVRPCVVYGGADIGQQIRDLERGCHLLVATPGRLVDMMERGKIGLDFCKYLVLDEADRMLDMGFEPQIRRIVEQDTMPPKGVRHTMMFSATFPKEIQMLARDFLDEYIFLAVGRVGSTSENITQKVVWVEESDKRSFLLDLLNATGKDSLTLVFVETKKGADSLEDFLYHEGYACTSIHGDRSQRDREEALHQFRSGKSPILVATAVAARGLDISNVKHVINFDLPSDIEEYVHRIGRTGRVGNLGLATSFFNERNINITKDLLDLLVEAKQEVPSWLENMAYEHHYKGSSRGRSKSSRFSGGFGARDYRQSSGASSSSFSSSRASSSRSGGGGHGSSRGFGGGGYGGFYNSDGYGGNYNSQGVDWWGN
UniProt O60884: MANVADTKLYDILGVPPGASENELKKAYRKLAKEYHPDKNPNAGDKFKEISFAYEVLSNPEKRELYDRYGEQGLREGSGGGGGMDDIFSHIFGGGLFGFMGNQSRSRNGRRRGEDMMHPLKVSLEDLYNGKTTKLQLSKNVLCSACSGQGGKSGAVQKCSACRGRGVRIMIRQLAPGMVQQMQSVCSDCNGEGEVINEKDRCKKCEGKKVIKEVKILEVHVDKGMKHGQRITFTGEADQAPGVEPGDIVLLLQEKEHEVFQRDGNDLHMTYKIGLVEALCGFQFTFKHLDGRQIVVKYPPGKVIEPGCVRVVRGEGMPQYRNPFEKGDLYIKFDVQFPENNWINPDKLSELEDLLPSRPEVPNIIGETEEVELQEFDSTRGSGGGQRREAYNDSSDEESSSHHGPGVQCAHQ
UniProt P26196: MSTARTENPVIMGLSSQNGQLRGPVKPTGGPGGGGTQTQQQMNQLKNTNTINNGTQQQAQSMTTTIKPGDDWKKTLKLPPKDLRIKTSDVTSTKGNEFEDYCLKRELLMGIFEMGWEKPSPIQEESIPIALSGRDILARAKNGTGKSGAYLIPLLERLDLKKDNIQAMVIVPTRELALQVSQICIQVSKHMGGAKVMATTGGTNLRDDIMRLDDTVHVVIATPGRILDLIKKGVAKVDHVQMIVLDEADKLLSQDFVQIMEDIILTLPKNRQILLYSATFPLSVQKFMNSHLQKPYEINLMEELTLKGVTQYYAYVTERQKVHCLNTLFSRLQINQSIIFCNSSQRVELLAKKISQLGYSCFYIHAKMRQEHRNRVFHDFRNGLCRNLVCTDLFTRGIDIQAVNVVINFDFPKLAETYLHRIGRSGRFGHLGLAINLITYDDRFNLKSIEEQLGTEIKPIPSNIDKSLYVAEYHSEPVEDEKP
UniProt O75907: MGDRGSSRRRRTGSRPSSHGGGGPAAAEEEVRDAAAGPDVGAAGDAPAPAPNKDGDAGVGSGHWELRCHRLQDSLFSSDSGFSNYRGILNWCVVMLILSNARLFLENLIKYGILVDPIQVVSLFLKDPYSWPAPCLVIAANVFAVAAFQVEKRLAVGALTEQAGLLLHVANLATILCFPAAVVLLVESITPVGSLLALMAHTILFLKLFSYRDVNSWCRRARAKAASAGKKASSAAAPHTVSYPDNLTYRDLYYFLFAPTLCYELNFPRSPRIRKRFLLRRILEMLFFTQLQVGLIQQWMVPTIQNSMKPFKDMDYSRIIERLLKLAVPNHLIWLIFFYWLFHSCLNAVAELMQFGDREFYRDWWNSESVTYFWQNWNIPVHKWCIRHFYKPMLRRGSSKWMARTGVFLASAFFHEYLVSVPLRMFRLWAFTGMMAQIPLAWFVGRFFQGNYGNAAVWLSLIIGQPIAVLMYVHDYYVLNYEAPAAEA
UniProt Q96DT5: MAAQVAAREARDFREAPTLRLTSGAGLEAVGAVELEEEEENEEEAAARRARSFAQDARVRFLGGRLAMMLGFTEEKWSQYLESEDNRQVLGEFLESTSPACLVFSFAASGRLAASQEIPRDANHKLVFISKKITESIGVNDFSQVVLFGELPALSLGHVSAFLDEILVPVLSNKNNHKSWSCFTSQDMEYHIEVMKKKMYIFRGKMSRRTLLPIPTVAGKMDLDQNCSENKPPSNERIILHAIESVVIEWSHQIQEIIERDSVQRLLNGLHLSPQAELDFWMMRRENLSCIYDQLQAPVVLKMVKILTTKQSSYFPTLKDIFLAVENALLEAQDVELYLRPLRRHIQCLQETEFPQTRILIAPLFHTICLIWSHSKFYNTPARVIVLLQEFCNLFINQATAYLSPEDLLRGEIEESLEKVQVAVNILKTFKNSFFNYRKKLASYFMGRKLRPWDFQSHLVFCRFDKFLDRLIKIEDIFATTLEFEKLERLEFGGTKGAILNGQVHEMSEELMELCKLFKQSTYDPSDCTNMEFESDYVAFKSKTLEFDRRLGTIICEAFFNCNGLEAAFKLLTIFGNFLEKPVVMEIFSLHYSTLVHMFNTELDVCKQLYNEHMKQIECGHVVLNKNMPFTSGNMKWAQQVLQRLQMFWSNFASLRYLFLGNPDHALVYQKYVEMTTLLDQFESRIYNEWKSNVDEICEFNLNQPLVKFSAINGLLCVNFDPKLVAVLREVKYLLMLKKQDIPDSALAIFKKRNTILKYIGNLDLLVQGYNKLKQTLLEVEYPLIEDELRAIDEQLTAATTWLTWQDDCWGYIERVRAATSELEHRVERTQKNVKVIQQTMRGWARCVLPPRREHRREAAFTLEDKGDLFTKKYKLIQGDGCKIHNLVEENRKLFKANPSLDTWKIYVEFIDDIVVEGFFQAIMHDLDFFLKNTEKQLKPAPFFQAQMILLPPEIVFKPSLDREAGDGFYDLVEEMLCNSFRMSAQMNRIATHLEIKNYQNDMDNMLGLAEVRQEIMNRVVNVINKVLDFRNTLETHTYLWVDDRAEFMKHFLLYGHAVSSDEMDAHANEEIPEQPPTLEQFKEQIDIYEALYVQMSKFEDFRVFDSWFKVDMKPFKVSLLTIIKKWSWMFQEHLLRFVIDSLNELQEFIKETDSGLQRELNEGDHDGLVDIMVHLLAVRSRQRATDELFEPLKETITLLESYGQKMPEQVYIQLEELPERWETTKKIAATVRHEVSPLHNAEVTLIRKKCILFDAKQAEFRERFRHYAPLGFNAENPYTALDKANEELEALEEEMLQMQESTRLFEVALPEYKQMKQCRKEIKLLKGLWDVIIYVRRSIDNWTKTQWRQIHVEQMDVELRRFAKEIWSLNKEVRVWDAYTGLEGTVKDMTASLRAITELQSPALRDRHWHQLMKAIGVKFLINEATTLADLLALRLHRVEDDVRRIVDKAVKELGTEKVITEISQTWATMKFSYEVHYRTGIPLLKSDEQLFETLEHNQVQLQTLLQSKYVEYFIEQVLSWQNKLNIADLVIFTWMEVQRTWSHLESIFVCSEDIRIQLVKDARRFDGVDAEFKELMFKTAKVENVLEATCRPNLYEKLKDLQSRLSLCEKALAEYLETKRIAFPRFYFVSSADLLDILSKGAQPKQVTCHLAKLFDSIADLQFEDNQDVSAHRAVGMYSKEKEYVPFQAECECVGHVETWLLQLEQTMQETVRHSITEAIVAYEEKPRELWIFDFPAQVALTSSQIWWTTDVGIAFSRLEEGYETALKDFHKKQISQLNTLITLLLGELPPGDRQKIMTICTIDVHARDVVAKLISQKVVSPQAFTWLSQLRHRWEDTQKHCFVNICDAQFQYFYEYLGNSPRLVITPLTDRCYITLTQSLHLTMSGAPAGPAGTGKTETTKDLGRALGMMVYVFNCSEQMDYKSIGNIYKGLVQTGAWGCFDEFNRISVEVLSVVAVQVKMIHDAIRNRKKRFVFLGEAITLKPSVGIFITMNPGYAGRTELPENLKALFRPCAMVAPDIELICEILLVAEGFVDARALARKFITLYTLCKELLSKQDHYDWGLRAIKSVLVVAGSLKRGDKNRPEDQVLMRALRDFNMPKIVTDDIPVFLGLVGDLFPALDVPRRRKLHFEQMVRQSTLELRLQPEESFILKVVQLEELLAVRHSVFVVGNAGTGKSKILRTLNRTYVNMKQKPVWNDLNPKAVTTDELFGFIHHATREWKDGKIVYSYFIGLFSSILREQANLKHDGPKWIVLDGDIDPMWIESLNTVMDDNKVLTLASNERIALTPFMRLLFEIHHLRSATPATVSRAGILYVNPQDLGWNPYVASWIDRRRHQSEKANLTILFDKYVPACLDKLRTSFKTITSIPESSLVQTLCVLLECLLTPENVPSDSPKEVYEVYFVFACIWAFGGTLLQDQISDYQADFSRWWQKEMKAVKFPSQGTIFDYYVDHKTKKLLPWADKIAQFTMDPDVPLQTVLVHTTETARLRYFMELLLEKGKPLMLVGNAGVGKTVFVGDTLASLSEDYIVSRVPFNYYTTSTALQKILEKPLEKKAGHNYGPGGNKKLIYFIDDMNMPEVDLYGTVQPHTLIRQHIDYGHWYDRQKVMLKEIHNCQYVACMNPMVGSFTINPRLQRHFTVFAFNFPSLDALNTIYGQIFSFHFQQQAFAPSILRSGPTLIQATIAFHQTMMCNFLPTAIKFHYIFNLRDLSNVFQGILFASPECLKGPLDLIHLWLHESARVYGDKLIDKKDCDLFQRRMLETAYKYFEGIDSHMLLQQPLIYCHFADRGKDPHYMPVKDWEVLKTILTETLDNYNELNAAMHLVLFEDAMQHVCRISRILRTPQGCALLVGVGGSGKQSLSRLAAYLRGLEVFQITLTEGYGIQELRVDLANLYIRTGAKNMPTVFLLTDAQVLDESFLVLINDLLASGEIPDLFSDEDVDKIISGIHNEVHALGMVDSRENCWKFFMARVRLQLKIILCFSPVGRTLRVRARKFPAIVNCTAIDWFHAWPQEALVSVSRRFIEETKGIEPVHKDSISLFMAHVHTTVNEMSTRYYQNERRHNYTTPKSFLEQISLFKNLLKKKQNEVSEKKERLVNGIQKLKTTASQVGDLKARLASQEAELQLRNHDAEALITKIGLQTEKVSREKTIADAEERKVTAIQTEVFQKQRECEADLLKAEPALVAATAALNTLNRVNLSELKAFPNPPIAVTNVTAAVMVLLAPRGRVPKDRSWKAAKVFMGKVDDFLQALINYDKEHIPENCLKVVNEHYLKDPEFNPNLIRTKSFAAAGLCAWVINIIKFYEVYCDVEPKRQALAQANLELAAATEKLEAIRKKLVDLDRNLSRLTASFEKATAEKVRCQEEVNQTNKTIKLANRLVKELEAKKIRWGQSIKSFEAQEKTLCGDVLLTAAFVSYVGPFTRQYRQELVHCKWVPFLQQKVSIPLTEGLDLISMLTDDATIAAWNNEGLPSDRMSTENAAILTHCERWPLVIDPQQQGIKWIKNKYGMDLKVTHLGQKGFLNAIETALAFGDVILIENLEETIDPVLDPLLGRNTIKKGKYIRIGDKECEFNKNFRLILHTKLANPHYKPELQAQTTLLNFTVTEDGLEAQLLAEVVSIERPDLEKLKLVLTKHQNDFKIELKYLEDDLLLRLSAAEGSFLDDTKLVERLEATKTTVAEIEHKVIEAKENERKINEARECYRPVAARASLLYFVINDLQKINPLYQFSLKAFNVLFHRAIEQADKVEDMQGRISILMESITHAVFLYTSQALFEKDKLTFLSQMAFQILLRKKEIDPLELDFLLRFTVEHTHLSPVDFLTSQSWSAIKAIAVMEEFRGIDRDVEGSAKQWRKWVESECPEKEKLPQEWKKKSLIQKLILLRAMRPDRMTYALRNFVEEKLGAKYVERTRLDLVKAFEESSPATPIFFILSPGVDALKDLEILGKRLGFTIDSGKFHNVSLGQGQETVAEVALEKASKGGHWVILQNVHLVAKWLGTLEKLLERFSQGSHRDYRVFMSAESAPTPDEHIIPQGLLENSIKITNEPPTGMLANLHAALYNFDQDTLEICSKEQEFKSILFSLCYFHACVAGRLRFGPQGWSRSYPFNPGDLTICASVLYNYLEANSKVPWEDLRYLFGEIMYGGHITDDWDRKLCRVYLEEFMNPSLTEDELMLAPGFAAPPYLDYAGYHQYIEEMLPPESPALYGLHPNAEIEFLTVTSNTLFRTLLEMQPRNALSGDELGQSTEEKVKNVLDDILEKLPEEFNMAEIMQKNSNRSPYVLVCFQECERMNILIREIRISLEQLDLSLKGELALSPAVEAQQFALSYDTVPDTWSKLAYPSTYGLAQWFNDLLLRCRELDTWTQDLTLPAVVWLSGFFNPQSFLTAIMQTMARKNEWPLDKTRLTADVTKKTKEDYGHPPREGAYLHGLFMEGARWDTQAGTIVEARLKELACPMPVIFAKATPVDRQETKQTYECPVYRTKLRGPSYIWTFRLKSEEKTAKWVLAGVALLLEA

How the values were obtained:
Assay in all cases: log2 fold change, soluble protein after heating vs DMSO (PISA); higher = thermal stabilisation; K562 cells, 10 uM, 30 min; active = over 0.2 and 3.5 SD of the protein, either way, in both replicates (recomputed)
[1] = compound: CC1=C(C=C(C=C1)NC(=O)C2=CC(=CC=C2)C(C)(C)C#N)NC3=CC4=C(C=C3)N=CN(C4=O)C
Summary of the method: (§1)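 K562 cells at 2×10^6 cells/mL were given 10 μM compound for 30 min. Aliquots then went through 3 min of heating across 48°C-58°C, were pooled, and were extracted in PBS with 0.5% NP-40 at 4°C, and the supernatant after 21,000xg for 90 min was quantified by TMTpro 16plex LC-MS/MS with channel sums equalised. Thermal stability relative to control samples, from duplicates, is given as log2 fold change.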

[2] = compound: CC1=C(C=C(C=C1)NC(=O)C2=CC(=CC=C2)N(C)C)NC(=O)C3=CC=C(C=C3)O
Summary of the method: as §1

[3] = compound: CC1=CC=C(C=C1)SC2=C3C=C(SC3=CN=C2)C(=O)N
Summary of the method: as §1

[4] = compound: CC1=NC(=CC=C1)C2=C(N=C(N2)C(C)(C)C)C3=CC4=NC=CN=C4C=C3
Summary of the method: as §1

Nexturastat A = compound: CCCCN(Cc1ccc(C(=O)NO)cc1)C(=O)Nc1ccccc1 [Nexturastat A]
Summary of the method: as §1

vemurafenib = compound: CCCS(=O)(=O)Nc1ccc(F)c(C(=O)c2c[nH]c3ncc(-c4ccc(Cl)cc4)cc23)c1F [vemurafenib]
Summary of the method: as §1

[5] = compound: CCCS(=O)(=O)Nc1ccc(F)c(C(=O)c2c[nH]c3ncc(Cl)cc23)c1F
Summary of the method: as §1

[6] = compound: CCCc1cc(C)[nH]c(=O)c1CNC(=O)c1cc(-c2ccnc(N3CCN(C)CC3)c2)cc2c1cnn2C(C)C
Summary of the method: as §1

givinostat = compound: CCN(CC)Cc1ccc2cc(COC(=O)Nc3ccc(C(=O)NO)cc3)ccc2c1 [givinostat]
Summary of the method: as §1

barasertib = compound: CCN(CCCOc1ccc2c(Nc3cc(CC(=O)Nc4cccc(F)c4)[nH]n3)ncnc2c1)CCOP(=O)(O)O [barasertib]
Summary of the method: as §1

[7] = compound: CC[C@@H]1C(=O)N(C)c2cnc(Nc3ccc(C(=O)NC4CCN(C)CC4)cc3OC)nc2N1C1CCCC1
Summary of the method: as §1

volasertib = compound: CC[C@@H]1C(=O)N(C)c2cnc(Nc3ccc(C(=O)N[C@H]4CC[C@H](N5CCN(CC6CC6)CC5)CC4)cc3OC)nc2N1C(C)C [volasertib]
Summary of the method: as §1

[8] = compound: CC[C@H](C)N1C=C(C2=C(C=C(C=C21)C3=CN=C(C=C3)N4CCNCC4)C(=O)NCC5=C(C=C(NC5=O)C)C)C
Summary of the method: as §1

epoxomicin = compound: CC[C@H](C)[C@@H](C(=O)N[C@@H]([C@@H](C)O)C(=O)N[C@@H](CC(C)C)C(=O)[C@]1(CO1)C)NC(=O)[C@H]([C@@H](C)CC)N(C)C(=O)C [epoxomicin]
Summary of the method: as §1

[9] = compound: CCn1c(C(=O)N(C2CC2)C2CC2)cc2c3c(ncn3C)c(Nc3cc(C)n(C)n3)nc21
Summary of the method: as §1

[10] = compound: CCn1cc(-c2ccnc3[nH]c(-c4cccc(CN(C)C)c4)cc23)c(-c2ccc(NC(=O)N(C)C)cc2)n1
Summary of the method: as §1

[11] = compound: CN(C)CC(=O)Nc1ccc2[nH]c(=O)c3ccccc3c2c1
Summary of the method: as §1

rosiglitazone = compound: CN(CCOC1=CC=C(C=C1)C[C@H]2C(=O)NC(=O)S2)C3=CC=CC=N3 (racemic) [rosiglitazone]
Summary of the method: as §1

[12] = compound: CN1C2=C(C3=C1C(=O)N(N=C3)CC4=CC(=CC=C4)N)SC(=C2)S(=O)C
Summary of the method: as §1

[13] = compound: CN1CCC(CNc2ccc3ncc(-c4cccc(OC(F)(F)F)c4)n3n2)CC1
Summary of the method: as §1

Measured: log2 fold change

DHX15 (UniProt O43143)
inactive: [1] -0.006 | [2] 0.015 | [3] 0.015 | [4] -0.002 | Nexturastat A -0.018 | vemurafenib -0.013 | [5] -0.002 | [6] -0.013 | givinostat -0.068 | barasertib 0 | [7] 0.001 | volasertib 0.045 | [8] -0.017 | epoxomicin 0.006 | [9] -0.03 | [10] 0.001 | [11] -0.028 | rosiglitazone 0.011 | [12] -0.051 | [13] -0.021

DNAJA1 (UniProt P31689)
inactive: [1] -0.014 | [2] -0.077 | [3] -0.007 | [4] -0.005 | Nexturastat A 0.005 | vemurafenib 0.013 | [5] 0.006 | [6] -0.018 | givinostat 0.021 | barasertib 0.002 | [7] 0.002 | volasertib -0.116 | [8] -0.018 | epoxomicin 0.015 | [9] -0.009 | [10] -0.016 | [11] -0.027 | rosiglitazone 0.045 | [12] -0.012 | [13] -0.036

DDX56 (UniProt Q9NY93)
inactive: [1] 0.14 | [2] -0.06 | [3] -0.014 | [4] -0.017 | Nexturastat A 0.275 | vemurafenib 0.068 | [5] 0.077 | [6] 0.036 | givinostat 0.078 | barasertib -0.049 | [7] -0.023 | volasertib 0.266 | [8] -0.041 | epoxomicin -0.026 | [9] -0.003 | [10] 0.047 | [11] 0.016 | rosiglitazone -0.047 | [12] 0.259 | [13] 0.391

DDA1 (UniProt Q9BW61)
inactive: [1] 0.001 | [2] -0.018 | [3] -0.017 | [4] 0.086 | Nexturastat A -0.107 | vemurafenib -0.014 | [5] -0.008 | [6] 0.025 | givinostat -0.035 | barasertib 0.019 | [7] -0.015 | volasertib -0.061 | [8] 0.094 | epoxomicin 0.065 | [9] -0.044 | [10] 0.034 | [11] 0.007 | rosiglitazone 0.041 | [12] -0.003 | [13] -0.006

DDX3X (UniProt O00571)
inactive: [1] 0.088 | [2] 0.124 | [3] -0.001 | [4] -0.099 | Nexturastat A 0.656 | vemurafenib -0.051 | [5] 0.034 | [6] 0.212 | givinostat 0.217 | barasertib 0.037 | [7] 0.176 | volasertib -0.05 | [8] 0.1 | epoxomicin -0.455 | [9] 0.001 | [10] 0.215 | [11] 0.003 | rosiglitazone -0.047 | [12] 0.592 | [13] 0.096

DNAJA2 (UniProt O60884)
inactive: [1] -0.014 | [2] -0.054 | [3] -0.011 | [4] 0.011 | Nexturastat A -0.054 | vemurafenib -0.014 | [5] 0 | [6] -0.022 | givinostat -0.035 | barasertib -0.003 | [7] -0.009 | volasertib -0.076 | [8] 0.033 | epoxomicin 0.026 | [9] -0.05 | [10] -0.047 | [11] -0.004 | rosiglitazone 0.024 | [12] -0.036 | [13] -0.013

DGUOK (UniProt Q16854)
inactive: [1] 0.005 | [2] 0.002 | [3] -0.012 | [4] 0.021 | Nexturastat A 0.043 | vemurafenib 0.026 | [5] -0.021 | [6] -0.028 | givinostat -0.011 | barasertib 0.018 | [7] 0.012 | volasertib 0.129 | [8] -0.056 | epoxomicin -0.073 | [9] 0.018 | [10] 0.069 | [11] -0.006 | rosiglitazone 0.007 | [12] -0.091 | [13] 0.037

DDX6 (UniProt P26196)
inactive: [1] -0.015 | [2] 0.007 | [3] 0.001 | [4] 0.005 | Nexturastat A 0.078 | vemurafenib -0.028 | [5] 0.016 | [6] 0.087 | givinostat 0.039 | barasertib -0.006 | [7] 0.019 | volasertib 0.051 | [8] 0.03 | epoxomicin -0.028 | [9] 0.005 | [10] -0.021 | [11] -0.047 | rosiglitazone 0.025 | [12] 0.038 | [13] 0.007

2 consecutive records out of the list so far:
DNAJA2 (UniProt O60884)
inactive: [1] -0.014 | [2] -0.054 | [3] -0.011 | [4] 0.011 | Nexturastat A -0.054 | vemurafenib -0.014 | [5] 0 | [6] -0.022 | givinostat -0.035 | barasertib -0.003 | [7] -0.009 | volasertib -0.076 | [8] 0.033 | epoxomicin 0.026 | [9] -0.05 | [10] -0.047 | [11] -0.004 | rosiglitazone 0.024 | [12] -0.036 | [13] -0.013

DGUOK (UniProt Q16854)
inactive: [1] 0.005 | [2] 0.002 | [3] -0.012 | [4] 0.021 | Nexturastat A 0.043 | vemurafenib 0.026 | [5] -0.021 | [6] -0.028 | givinostat -0.011 | barasertib 0.018 | [7] 0.012 | volasertib 0.129 | [8] -0.056 | epoxomicin -0.073 | [9] 0.018 | [10] 0.069 | [11] -0.006 | rosiglitazone 0.007 | [12] -0.091 | [13] 0.037

Carrying on:

DECR1 (UniProt Q16698)
inactive: [1] 0.002 | [2] -0.007 | [3] 0.004 | [4] 0.002 | Nexturastat A -0.057 | vemurafenib 0.023 | [5] 0.022 | [6] 0.005 | givinostat -0.036 | barasertib -0.009 | [7] -0.019 | volasertib 0.022 | [8] -0.002 | epoxomicin 0.051 | [9] -0.03 | [10] -0.021 | [11] 0.008 | rosiglitazone -0.002 | [12] -0.061 | [13] 0.138

DGAT1 (UniProt O75907)
inactive: [1] 0.053 | [2] -0.06 | [3] 0.011 | [4] -0.017 | Nexturastat A 0.001 | vemurafenib 0.057 | [5] 0.13 | [6] -0.071 | givinostat 0.018 | barasertib -0.078 | [7] 0.043 | volasertib -0.023 | [8] 0.022 | epoxomicin -0.056 | [9] 0.084 | [10] -0.098 | [11] -0.01 | rosiglitazone 0.135 | [12] 0.015 | [13] 0.004

DGCR8 (UniProt Q8WYQ5)
inactive: [1] 0.008 | [2] -0.051 | [3] -0.087 | [4] -0.183 | Nexturastat A 0.207 | vemurafenib 0.049 | [5] 0 | [6] 0.172 | givinostat 0.082 | barasertib -0.224 | [7] 0.308 | volasertib -0.039 | [8] 0.031 | epoxomicin -0.247 | [9] 0.033 | [10] 0.184 | [11] -0.108 | rosiglitazone 0.168 | [12] 0.338 | [13] 0.216

DIP2A (UniProt Q14689)
inactive: [1] 0.032 | [2] -0.013 | [3] -0.007 | [4] 0.07 | Nexturastat A -0.119 | vemurafenib 0.05 | [5] -0.009 | [6] 0.336 | givinostat -0.05 | barasertib 0.118 | [7] -0.065 | volasertib 0.026 | [8] -0.037 | epoxomicin -0.017 | [10] -0.063 | [11] -0.041 | [12] -0.045 | [13] 0.057

DERL1 (UniProt Q9BUN8)
inactive: [1] -0.072 | [2] -0.006 | [3] -0.019 | [4] 0 | Nexturastat A -0.065 | vemurafenib -0.054 | [5] -0.029 | [6] 0.003 | givinostat 0.024 | barasertib 0.094 | [7] 0.023 | volasertib 0.039 | [8] 0.008 | epoxomicin 0.109 | [9] 0.059 | [10] -0.051 | [11] 0.016 | rosiglitazone -0.031 | [12] -0.021 | [13] 0.142

DNAH11 (UniProt Q96DT5)
inactive: [1] -0.109 | [2] 0.064 | [3] -0.13 | [4] 0.044 | Nexturastat A -0.007 | vemurafenib 0.199 | [5] -0.15 | [6] 0.17 | givinostat 0.111 | barasertib -0.051 | [7] 0.234 | volasertib 0.426 | [8] -0.029 | epoxomicin -0.157 | [10] 0.176 | [11] -0.111 | [12] 0.298 | [13] -0.424

DIS3 (UniProt Q9Y2L1)
inactive: [1] 0.039 | [2] -0.049 | [3] 0.027 | [4] 0.013 | Nexturastat A -0.047 | vemurafenib 0.045 | [5] 0.047 | [6] 0.047 | givinostat 0.121 | barasertib 0.096 | [7] -0.105 | volasertib -0.212 | [8] 0.084 | epoxomicin 0.044 | [9] -0.083 | [10] -0.052 | [11] 0.083 | rosiglitazone 0.089 | [12] -0.024 | [13] -0.156

DENND10 (UniProt Q8TCE6)
inactive: [1] 0.022 | [2] 0.036 | [3] 0.029 | Nexturastat A -0.119 | vemurafenib -0.023 | [5] 0.01 | [6] -0.023 | givinostat 0.131 | barasertib 0.036 | [7] -0.041 | volasertib -0.241 | [8] 0.121 | epoxomicin -0.041 | [11] 0.076 | [12] -0.031
